From PubChem BioAssay AID588765 (NMMLSC, 2011) come the findings set out here.

The list shows a part of the results.

The nature of this assay: fluorescent artefacts in FAP flow readout – cell-based, FAP fluorogen, flow cytometry, cherry pick 1, artefact control for beta2AR agonist internalization project, confirmation (AID 588765).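 Note: low percent response here flags compound autofluorescence meaning a false positive.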 Particulars: Am2.2 cells, fluorescence counterscreen, measured here: FL8 channel fluorescence, at 10 µM, stronger effect = lower value. (In flow cytometry, cells or beads pass a laser one at a time.)
For the compound `CN(C)C(=O)c1cc([N+](=O)[O-])cc2c1-c1c(cc([N+](=O)[O-])cc1[N+](=O)[O-])C2=O`, the percent response FL8 was found to be 86.2%.
